# Measured values taken from the supplement of paper PMC8728848.
# The list shows a part of the results.
# Key:
# Test in all cases: glycan array binding signal (z-score within array); higher = stronger binding
# Details in all cases: glycan notation: IUPAC condensed, linker removed
# [1] = biological target: Fuc(a1-2)[Gal(a1-4)]Gal(b1-4)GlcNAc
# Outline: (§1)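 Glycan array data were curated from 3228 arrays in the Consortium for Functional Glycomics database and kept only where the protein sequence was available. Glycan names were converted to IUPAC-condensed notation, and columns mapping to the same glycan were averaged. The binding signal is a within-array Z-score, averaged across arrays of the same protein sequence at different concentrations or buffers and across linkers. Negative Z-scores can be read as non-binding.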
# [2] = biological target: Fuc(a1-2)[GalNAc(a1-3)]Gal
# Outline: as §1
# [3] = biological target: Fuc(a1-2)[GalNAc(a1-3)]Gal(b1-3)GalNAc(a1-3)[Fuc(a1-2)]Gal(b1-4)GlcNAc
# Outline: as §1
# [4] = biological target: Fuc(a1-2)[GalNAc(a1-3)]Gal(b1-3)GalNAc(b1-3)Gal(a1-4)Gal(b1-4)Glc
# Outline: as §1
# [5] = biological target: Fuc(a1-2)[GalNAc(a1-3)]Gal(b1-3)GlcNAc
# Outline: as §1
# [6] = biological target: Fuc(a1-2)[GalNAc(a1-3)]Gal(b1-3)GlcNAc(b1-2)Man(a1-3)[Fuc(a1-2)[GalNAc(a1-3)]Gal(b1-3)GlcNAc(b1-2)Man(a1-6)]Man(b1-4)GlcNAc(b1-4)GlcNAc
# Outline: as §1
# [7] = biological target: Fuc(a1-2)[GalNAc(a1-3)]Gal(b1-3)GlcNAc(b1-2)Man(a1-3)[Fuc(a1-2)[GalNAc(a1-3)]Gal(b1-3)GlcNAc(b1-2)Man(a1-6)]Man(b1-4)GlcNAc(b1-4)[Fuc(a1-6)]GlcNAc
# Outline: as §1
# [8] = biological target: Fuc(a1-2)[GalNAc(a1-3)]Gal(b1-3)GlcNAc(b1-3)GalNAc
# Outline: as §1
# [9] = biological target: Fuc(a1-2)[GalNAc(a1-3)]Gal(b1-3)GlcNAc(b1-6)GalNAc
# Outline: as §1
# [10] = biological target: Fuc(a1-2)[GalNAc(a1-3)]Gal(b1-4)Glc
# Outline: as §1
# [11] = biological target: Fuc(a1-2)[GalNAc(a1-3)]Gal(b1-4)GlcNAc
# Outline: as §1
# [12] = biological target: Fuc(a1-2)[GalNAc(a1-3)]Gal(b1-4)GlcNAc(b1-2)Man
# Outline: as §1
# [13] = biological target: Fuc(a1-2)[GalNAc(a1-3)]Gal(b1-4)GlcNAc(b1-2)Man(a1-3)[Fuc(a1-2)[GalNAc(a1-3)]Gal(b1-4)GlcNAc(b1-2)Man(a1-6)]Man(b1-4)GlcNAc(b1-4)GlcNAc
# Outline: as §1
# [14] = biological target: Fuc(a1-2)[GalNAc(a1-3)]Gal(b1-4)GlcNAc(b1-2)Man(a1-3)[Fuc(a1-2)[GalNAc(a1-3)]Gal(b1-4)GlcNAc(b1-2)Man(a1-6)]Man(b1-4)GlcNAc(b1-4)[Fuc(a1-6)]GlcNAc
# Outline: as §1
# [15] = biological target: Fuc(a1-2)[GalNAc(a1-3)]Gal(b1-4)GlcNAc(b1-3)Gal(b1-4)GlcNAc
# Outline: as §1
# [16] = biological target: Fuc(a1-2)[GalNAc(a1-3)]Gal(b1-4)GlcNAc(b1-3)Gal(b1-4)GlcNAc(b1-3)Gal(b1-4)GlcNAc
# Outline: as §1
# [17] = biological target: Fuc(a1-2)[GalNAc(a1-3)]Gal(b1-4)GlcNAc(b1-3)GalNAc
# Outline: as §1
# [18] = biological target: Fuc(a1-2)[GalNAc(a1-3)]Gal(b1-4)GlcNAc(b1-3)[Fuc(a1-2)[GalNAc(a1-3)]Gal(b1-4)GlcNAc(b1-6)]GalNAc
# Outline: as §1
# [19] = biological target: Fuc(a1-2)[GalNAc(a1-3)]Gal(b1-4)GlcNAc(b1-6)GalNAc
# Outline: as §1
# [20] = biological target: Fuc(a1-2)[GalNAc(a1-3)]Gal(b1-4)[Fuc(a1-3)]GlcNAc
# Outline: as §1
# [21] = biological target: Fuc(a1-2)[GalNAc(a1-3)]Gal(b1-4)[Fuc(a1-3)]GlcNAc(b1-3)GalNAc
# Outline: as §1
# [22] = biological target: Fuc(a1-2)[GalNAc(a1-4)]Gal(b1-4)GlcNAc
# Outline: as §1
# [23] = biological target: Fuc(a1-2)[GalNAc(b1-3)]Gal
# Outline: as §1
# Fuc(a1-3)GlcNAc = biological target: Fuc(a1-3)GlcNAc
# Outline: as §1
# [24] = biological target: Fuc(a1-3)[Gal(b1-4)]Glc6S
# Outline: as §1
# [25] = biological target: Fuc(a1-3)[Gal(b1-4)]GlcNAc
# Outline: as §1
# [26] = biological target: Fuc(a1-3)[Gal(b1-4)]GlcNAc(b1-2)Man
# Outline: as §1
# [27] = biological target: Fuc(a1-3)[Gal(b1-4)]GlcNAc(b1-2)Man(a1-3)[Fuc(a1-3)[Gal(b1-4)]GlcNAc(b1-2)Man(a1-6)]Man(b1-4)GlcNAc(b1-4)GlcNAc
# Outline: as §1
# [28] = biological target: Fuc(a1-3)[Gal(b1-4)]GlcNAc(b1-2)Man(a1-3)[Fuc(a1-3)[Gal(b1-4)]GlcNAc(b1-2)Man(a1-6)]Man(b1-4)GlcNAc(b1-4)[Fuc(a1-6)]GlcNAc
# Outline: as §1
# [29] = biological target: Fuc(a1-3)[Gal(b1-4)]GlcNAc(b1-3)Gal(b1-3)[Fuc(a1-4)]GlcNAc
# Outline: as §1
# [30] = biological target: Fuc(a1-3)[Gal(b1-4)]GlcNAc(b1-3)Gal(b1-4)[Fuc(a1-3)]GlcNAc
# Outline: as §1
# [31] = biological target: Fuc(a1-3)[Gal(b1-4)]GlcNAc(b1-3)Gal(b1-4)[Fuc(a1-3)]GlcNAc(b1-3)Gal(b1-4)[Fuc(a1-3)]GlcNAc
# Outline: as §1
# [32] = biological target: Fuc(a1-3)[Gal(b1-4)]GlcNAc(b1-3)GalNAc
# Outline: as §1
# [33] = biological target: Fuc(a1-3)[Gal(b1-4)]GlcNAc(b1-6)GalNAc
# Outline: as §1
# [34] = biological target: Fuc(a1-3)[Gal(b1-4)]GlcNAc(b1-6)[Gal(b1-3)GlcNAc(b1-3)]Gal(b1-4)Glc
# Outline: as §1
# [35] = biological target: Fuc(a1-3)[Gal(b1-4)]GlcNAc6S
# Outline: as §1
# [36] = biological target: Fuc(a1-3)[Gal3S(b1-4)]Glc
# Outline: as §1
# [37] = biological target: Fuc(a1-3)[Gal3S(b1-4)]GlcNAc
# Outline: as §1
binder,measurement,setting,value
PX14404-bvu-534-26-534 (Bacteroides vulgatus) (protein) EDPRGKLTPENFFSTQDELNMSIYALYQKVNLSQVYTNMQLPQWQGDDITTNPGSNKQPAAEMDKFAAANNNKGVKDAWNMHYAIVKAANLIIQGASKTPTTQDEINIALGQAKFWRAYAYFTLVRLWGPLPMNLDNVNDDYTKPLSPVEEVYGHIVQDLTEAEAVLPTGYSGSPRFLNGVNVYVTRQAAKSTLAAVYMAMAGWPMNKTEYYAKAAEKAKEVIEGVNRGEYEYKLDKDYKDVYAMSNNYNNETVLGINYSPFVDWAQDSELTSCNQFESLGGWGDAWGEIRFWKEFPDGPRKDATYDPKIRLKDGTLVDWWELKEDGTPVVPEHHPMFSIFSVNWDPASKVNTSAPYDYTKPASQNMCNDHRHRIIRYSEVLLWYAEAKARTGQTDELAFKCLNDVRERAGLEPLTGLSADDLAEAAYKEHGWEVAGYWVALVTRRADQFRMNRLKDTFKERAENTAVEVADGILVKESVEYTNRTWSDNLMYLPYPDMDSQKNPNLVR,glycan array binding signal (z-score),[1],0.074
same,glycan array binding signal (z-score),[2],-0.368
same,glycan array binding signal (z-score),[3],-0.524
same,glycan array binding signal (z-score),[4],-0.002
same,glycan array binding signal (z-score),[5],0.491
same,glycan array binding signal (z-score),[6],0.949
same,glycan array binding signal (z-score),[7],-1.04
same,glycan array binding signal (z-score),[8],-0.573
same,glycan array binding signal (z-score),[9],-0.199
same,glycan array binding signal (z-score),[10],-0.975
same,glycan array binding signal (z-score),[11],-1.17
same,glycan array binding signal (z-score),[12],-1.15
same,glycan array binding signal (z-score),[13],0.042
same,glycan array binding signal (z-score),[14],1.18
same,glycan array binding signal (z-score),[15],-1.36
same,glycan array binding signal (z-score),[16],-0.561
same,glycan array binding signal (z-score),[17],0.719
same,glycan array binding signal (z-score),[18],0.772
same,glycan array binding signal (z-score),[19],-0.997
same,glycan array binding signal (z-score),[20],-0.077
same,glycan array binding signal (z-score),[21],1.51
same,glycan array binding signal (z-score),[22],-0.598
same,glycan array binding signal (z-score),[23],0.477
same,glycan array binding signal (z-score),Fuc(a1-3)GlcNAc,-0.234
same,glycan array binding signal (z-score),[24],0.853
same,glycan array binding signal (z-score),[25],-0.417
same,glycan array binding signal (z-score),[26],0.308
same,glycan array binding signal (z-score),[27],0.812
same,glycan array binding signal (z-score),[28],0.082
same,glycan array binding signal (z-score),[29],-0.723
same,glycan array binding signal (z-score),[30],-0.605
same,glycan array binding signal (z-score),[31],0.149
same,glycan array binding signal (z-score),[32],0.244
same,glycan array binding signal (z-score),[33],1.74
same,glycan array binding signal (z-score),[34],-0.693
same,glycan array binding signal (z-score),[35],-0.499
same,glycan array binding signal (z-score),[36],-0.877
same,glycan array binding signal (z-score),[37],-0.373

# An excerpt of these results, with tabs:
binder	measurement	setting	value
PX14404-bvu-534-26-534 (Bacteroides vulgatus) (protein) EDPRGKLTPENFFSTQDELNMSIYALYQKVNLSQVYTNMQLPQWQGDDITTNPGSNKQPAAEMDKFAAANNNKGVKDAWNMHYAIVKAANLIIQGASKTPTTQDEINIALGQAKFWRAYAYFTLVRLWGPLPMNLDNVNDDYTKPLSPVEEVYGHIVQDLTEAEAVLPTGYSGSPRFLNGVNVYVTRQAAKSTLAAVYMAMAGWPMNKTEYYAKAAEKAKEVIEGVNRGEYEYKLDKDYKDVYAMSNNYNNETVLGINYSPFVDWAQDSELTSCNQFESLGGWGDAWGEIRFWKEFPDGPRKDATYDPKIRLKDGTLVDWWELKEDGTPVVPEHHPMFSIFSVNWDPASKVNTSAPYDYTKPASQNMCNDHRHRIIRYSEVLLWYAEAKARTGQTDELAFKCLNDVRERAGLEPLTGLSADDLAEAAYKEHGWEVAGYWVALVTRRADQFRMNRLKDTFKERAENTAVEVADGILVKESVEYTNRTWSDNLMYLPYPDMDSQKNPNLVR	glycan array binding signal (z-score)	Fuc(a1-3)GlcNAc	-0.234
same	glycan array binding signal (z-score)	[24]	0.853
same	glycan array binding signal (z-score)	[25]	-0.417
